Assay results taken from paper PMC10721329, “Quisinostat is a brain-penetrant radiosensitizer in glioblastoma” (JCI Insight, 2023).
Several values for one entry are separate records, joined by “and”; a condition that tells them apart may be missing. Equal values may be shown once. Further values from the same series stand in other lists.

Experiment: Total and unbound QST in tumor and contralateral brain at survival end point, orthotopic GB126 PDX
Format: in vivo
Conditions: individual mice
Description: All mice included in the survival study were processed for end-point PK and PD analyses once moribund. Plasma, tumor, and contralateral brain tissues were harvested 3 hours after dosing with 10 mg/kg QST, allowing for direct comparison of long-term treatment with the PK-PD data collected from acute (1-week) treatment with QST or combination therapy (Figure 8A). […] There were no significant differences in total or unbound drug concentrations in tumor or brain tissue between the monotherapy or combination therapy cohorts (Figure 8, E and F). Immunoblot analysis of dissected tumor samples confirmed that QST induced substantial histone H3 hyperacetylation in brain tumors, compared with untreated animals, consistent with an in vivo on-target effect (Figure 9, A and B).
QST concentrations in specimens were measured using reverse-phase LC on the AB SCIEX QTRAP6500+ LC-MS/MS system by operating electrospray in the positive ion mode. For liquid chromatographic separation, gradient elution was performed using a Phenomenex Kinetex F5 100 Å column (100 × 2.1 mm, 2.6 μm). The initial composition of the mobile phase was 70% phase A (0.1% formic acid in water) and 30% phase B (0.1% formic acid in 1:1 acetonitrile/methanol) with a 0.35 mL/min flow rate. Gradient elution was achieved as follows: mobile phase (B) was maintained at 30% from 0 to 0.3 minutes, increased to 95% from 0.3 to 0.8 minutes, maintained at 95% from 0.8 to 2.5 minutes, and decreased to 30% from 2.5 to 2.8 minutes. The total run time was 3.5 minutes. The internal standard used in this study was D8-infigratinib. The retention times for QST and D8-infigratinib were 1.6 and 1.8 minutes, respectively. Mass-to-charge ratio transitions were as follows: 395.20 → 144.00 (QST) and 568.08 → 321.00 (D8-infigratinib). LC-MS/MS analysis was performed using an Analyst 1.7 Chromatographic Data System. See Supplemental Methods for detailed PK experiments.
Gy on MWF for a total of 6 Gy in the first week of treatment. Treatment groups included vehicle (50% PEG-3000), QST (10 mg/kg) alone, 6 Gy whole-brain IR treatment with vehicle, and 6 Gy whole-brain IR treatment with 10 mg/kg QST. QST was administered to mice through intraperitoneal injections two hours prior to whole-brain radiation treatment. Upon completion of the radiation regimen, IR-treated mice subsequently received QST or vehicle alone for the rest of the experiment. Tumor growth and treatment response was monitored by IVIS bioluminescence […]
once per week. […]
Tissue from the hemisphere contralateral to the tumor was also collected as a normal brain/nontumor reference sample. For PK analyses, the mice were anesthetized with isoflurane, and at least 300 μL of blood was drawn from the right ventricle of the heart. The blood was collected in tubes containing 10 μL of 0.1 M KOH in EDTA to prevent blood coagulation. Blood samples were immediately centrifuged at 3000 rpm for 10 minutes at 4 °C to allow separation of plasma. After collection of the blood, the tumor was dissected out of the brain and flash -frozen.
Both plasma and erythrocytes were flash-frozen for subsequent analysis. […]
vortex-mixed for 10 s and centrifuged at 12000 g at 4 °C for 10 min. A 100-µL aliquot of the supernatant was transferred to an autosampler vial, and 5 µL was injected into the LC-MS/MS system for analysis. Whenever necessary, appropriate dilutions were made to accommodate the analysis of small volume samples.
Brain and Brain Tumor Sample Preparation
Normal brain and brain tumor tissue homogenates were prepared by 1:4 (mass/volume) ratio with PBS. Samples were homogenized under 6.00 m/s speed for 40 seconds with 3 cycles by Bead Ruptor Elite homogenizer (Omni International). Plasma was used as a surrogate matrix for brain/tumor homogenate. Brain homogenate samples from in vivo studies were prepared as described for plasma samples. Analyte and IS were extracted by protein precipitation with methanol containing IS. After centrifugation at 12000 rpm for 10 minutes at 4 °C, 5 µL of […]

With `Cn1cc(CNCC2CCN(c3ncc(C(=O)NO)cn3)CC2)c2ccccc21` [QST, quisinostat] the “TOTAL [QST], Brain” value (Combination (QST + IR) cohort) was 72.315 nM and 29.62 nM and 43.55 nM, the “TOTAL [QST], Plasma” value (Combination (QST + IR) cohort) was 399.985 nM and 2.207 nM and 49.439 nM and 110.769 nM and the “TOTAL [QST], Tumor” value (Combination (QST + IR) cohort) was 710.135 nM and 2570.02 nM and 437.835 nM and 468.51 nM and 1334.08 nM. The “UNBOUND [QST], Brain” value (Combination (QST + IR) cohort) was 3.616 nM and 1.481 nM and 2.1775 nM, the “UNBOUND [QST], Plasma” value (Combination (QST + IR) cohort) was 158.394 nM and 0.874 nM and 19.5778 nM and 43.8645 nM and the “UNBOUND [QST], Tumor” value (Combination (QST + IR) cohort) was 35.5068 nM and 128.501 nM and 21.8918 nM and 23.4255 nM and 66.7037 nM. For the same molecule, the “UNBOUND [QST], Plasma” value (QST cohort) was 209.240 nM, the “UNBOUND [QST], Tumor” value (QST cohort) was 93.340 nM and 77.020 nM and 33.360 nM and 81.880 nM and the “TOTAL [QST], Brain” value (QST cohort, survival cohorts) was 20.975 nM and 88.070 nM and 131.685 nM and 30.585 nM and 88.07 nM. The “TOTAL [QST], Plasma” value (QST cohort, survival cohorts) was 90.238 nM and 253.568 nM and 187.867 nM and 528.383 nM and the “TOTAL [QST], Tumor” value (QST cohort, survival cohorts) was 1866.805 nM and 1540.405 nM and 667.195 nM and 1637.600 nM and 1866.81 nM and 1540.4 nM and 1637.6 nM.
